Values from PubChem BioAssay AID504774 (Drosophila RNAi Screening Center, 2011)

Screen: 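Fly genes whose loss alters survival after alkylation damage to DNA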 (primary screen)
System: Drosophila Kc167 cells
Reagent: long dsRNA against Drosophila genes, about 0.25 µg dsRNA per well
Timing: about 6 days: 3 days knock-down, then 3 days with or without MMS
Treatment: methyl methanesulphonate 0.004% (w/v) for 3 days after knock-down
Measurement: 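ATP-dependent luminescence as a measure of live cells in MMS-exposed wells, quantile normalised within each plate, with replicate values also given as a mean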
Direction: mean viability with MMS and viability with MMS: higher = more surviving cells after MMS
In all, the deposit lists about 23,000 reagents; below is a random part of those that have a named target and a result. 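Values are quantile-normalised luminescence on an arbitrary scale; higher means more cells surviving MMS.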 Reagents against one gene are numbered here. Names joined by + are all predicted targets of the reagent.

no.	target gene	dsRNA no.	mean viability with MMS	viability with MMS, replicate 1	viability with MMS, replicate 2
1	Obp83b (Odorant-binding protein 83b)	1	3.44e6	3.94e6	3.90e6
2	CG15533	1	3.58e6	4.13e6	3.98e6
3	Cep89 (Centrosomal protein 89kDa)	1	3.46e6	3.99e6	3.98e6
4	CG6356	1	3.59e6	4.07e6	4.06e6
5	e (ebony)	1	3.59e6	4.17e6	3.96e6
6	Hexim (Hexamethylene bisacetamide inducible)	1	3.44e6	3.93e6	3.84e6
7	speck	1	3.49e6	4.01e6	3.89e6
8	CG9518	1	3.62e6	4.14e6	4.05e6
9	mRpS18A (mitochondrial ribosomal protein S18A)	1	3.58e6	4.06e6	4.07e6
10	CG18480	1	3.60e6	4.00e6	4.21e6
11	CG9752	1	3.75e6	4.11e6	4.43e6
12	key (kenny)	1	2.89e6	2.70e6	3.55e6
13	Jhbp5 (Juvenile hormone binding protein 5)	1	3.65e6	4.12e6	4.19e6
14	CG5521	1	3.57e6	4.09e6	4.01e6
15	beag	1	3.40e6	3.79e6	3.87e6
16	CG4751	1	3.58e6	4.12e6	4.03e6
17	crc (cryptocephal)	1	3.37e6	3.85e6	3.73e6
18	mEFTu2 (mitochondrial translation elongation factor Tu 2)	1	3.16e6	2.77e6	3.49e6
19	ari-1 (ariadne 1)	1	3.72e6	4.11e6	4.22e6
20	ari-1 (ariadne 1)	2	3.71e6	4.11e6	4.24e6
21	Fer2 (48 related 2)	1	3.55e6	3.77e6	4.30e6
22	comm3	1	3.67e6	4.09e6	4.18e6
23	comm3	2	3.56e6	4.03e6	4.05e6
24	comm3	3	3.55e6	4.08e6	3.98e6
25	CG4669	1	3.49e6	3.93e6	3.97e6
26	CG42299 + CG42300	1	3.74e6	4.24e6	4.12e6
27	CG42299 + CG42300	2	3.63e6	4.16e6	4.04e6
28	CG2063	1	3.22e6	3.72e6	3.73e6
29	pcm (pacman)	1	3.55e6	4.15e6	3.92e6
30	CG12376	1	3.70e6	4.17e6	4.21e6
31	RhoGAP15B (Rho GTPase activating protein at 15B)	1	3.72e6	4.27e6	4.21e6
32	RhoGAP15B (Rho GTPase activating protein at 15B)	2	3.48e6	3.99e6	3.90e6
33	ymp (yellow-emperor)	1	3.50e6	3.96e6	3.99e6
34	ymp (yellow-emperor)	2	3.63e6	4.10e6	4.13e6
35	tRNA:Leu-CAA-2-3 (transfer RNA:Leucine-CAA 2-3)	1	3.71e6	4.18e6	4.18e6
36	dor (deep orange)	1	3.51e6	3.98e6	3.99e6
37	CG32121	1	3.48e6	3.92e6	4.00e6
38	CG9806	1	3.56e6	4.01e6	4.04e6
39	Mtmr6 (Myotubularin related protein 6)	1	3.51e6	3.93e6	4.01e6
40	Mp (Multiplexin)	1	4.07e6	4.75e6	4.75e6
41	Mp (Multiplexin)	2	3.60e6	4.02e6	4.15e6
42	Mp (Multiplexin)	3	3.60e6	4.23e6	3.95e6
43	Tsp42Ep (Tetraspanin 42Ep)	1	3.57e6	3.89e6	4.00e6
44	Taf13 (TBP-associated factor 13)	1	3.51e6	3.88e6	4.09e6
45	CG9743	1	3.44e6	3.85e6	3.89e6
46	CG14207	1	3.53e6	4.03e6	3.99e6
47	CG14207	2	3.56e6	3.98e6	4.09e6
48	Kat60 (Katanin 60)	1	3.49e6	4.00e6	3.94e6
49	CG5023	1	3.83e6	4.32e6	4.37e6
50	CG11374	1	3.56e6	4.01e6	4.09e6
51	CG4374	1	3.51e6	3.92e6	4.03e6
52	beat-VI (beaten path VI)	1	3.65e6	4.18e6	4.10e6
53	beat-VI (beaten path VI)	2	3.61e6	4.09e6	4.09e6
54	Uro (Urate oxidase)	1	3.32e6	3.67e6	3.77e6
55	Syt14 (Synaptotagmin 14)	1	3.66e6	4.08e6	4.17e6
56	Miox (Myo-inositol oxygenase)	1	3.46e6	3.87e6	3.96e6
57	CG10527	1	3.71e6	4.11e6	4.21e6
58	CG8191	1	3.61e6	4.09e6	4.08e6
59	CG14455	1	3.44e6	3.89e6	3.87e6
60	CG13801	1	3.58e6	4.10e6	3.99e6
61	CG18563	1	3.46e6	3.98e6	3.88e6
62	lncRNA:CR31044 (long non-coding RNA::CR31044)	1	3.68e6	4.12e6	4.13e6
63	CG13085	1	3.56e6	4.05e6	4.03e6
64	CG31789	1	3.49e6	3.90e6	4.01e6
65	GABPI (beta4GalNAcTB pilot)	1	3.41e6	3.70e6	3.93e6
66	htt (huntingtin)	1	3.56e6	4.01e6	4.06e6
67	CG13058	1	3.54e6	4.01e6	4.01e6
68	CG12035	1	3.56e6	4.05e6	4.02e6

Copied from the list:
beag, viability with MMS, replicate 2: 3.87e6
CG14207 #1, mean viability with MMS: 3.53e6
Value for CG5521 in “mean viability with MMS”: 3.57e6
CG2063, mean viability with MMS = 3.22e6
Uro (Urate oxidase), viability with MMS, replicate 1 → 3.67e6
mRpS18A (mitochondrial ribosomal protein S18A), viability with MMS, replicate 2 → 4.07e6
